{
  "sequences": {"note": "Chains of the proteins cited; added tags and fusions are not shown. Lines headed by an entry give the natural chain unless they say otherwise; changes in a name come on top.", "UniProt A8LHT0": "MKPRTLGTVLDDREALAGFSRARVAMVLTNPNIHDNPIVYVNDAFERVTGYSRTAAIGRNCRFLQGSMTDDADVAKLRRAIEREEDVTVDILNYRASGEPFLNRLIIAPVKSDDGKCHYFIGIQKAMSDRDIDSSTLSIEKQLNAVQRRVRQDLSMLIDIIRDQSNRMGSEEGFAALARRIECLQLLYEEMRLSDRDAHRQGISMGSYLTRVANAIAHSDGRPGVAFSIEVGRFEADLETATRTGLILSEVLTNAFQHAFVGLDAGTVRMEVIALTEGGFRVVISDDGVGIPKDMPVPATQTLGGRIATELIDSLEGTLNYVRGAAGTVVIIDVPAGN"},
  "source": "paper PMC10890935",
  "binders": {"B1": {"name": "RpoZ, RNA polymerase subunit omega (protein, UniProt A8LLD2 1-118)", "chain": "MARVTVEDCVDKVPNRFELVMLAAHRAREISAGSELTIDRDNDKNPVVSLREIAEETQSADALRERLIESNQTQIEVDEPEEDSMAMLMGGGQPDKPAEDDMSEEKLLRALMEAQGQP"}, "B2": {"name": "AccB, component of the acetyl coenzyme A carboxylase complex (protein, UniProt A8LJB6 1-175)", "chain": "MRLSDHPIEDGMTNKSHDDDVAFIKALAELLRANDLSELQVKREYGEDDSLNVRVSRQMTAAPVAAAMPVAAPAPMAAPVAPGAAAPAPLEGGDPAQDPNALTSPMVGTAYLQPEPGAASFVSTGDTVKEGQTVLIIEAMKTMNQIAAPRAGKVTRIFVEDGSPVEYGAPLMIIE"}, "B3": {"name": "PpsR repressor (protein, UniProt A8LQ24 1-476)", "chain": "MNTRERDFWDDRSAPRIAPEHFNEIVATAADLAIVLDLKGTVQSLVVNPLNPTIGRLDHWQKRDIREFLAEDSLAKLEKQLSAYQQGEVPPTDAIEVNHFDNANWEFPIRYTLHRTGDENLILMLGRDLRPVAELQHRLVKAQLALEKDYESHRDYETRYRVVMESTRDPLVLVDASSGRITDMNSAAAQVLGAEADALVGSLFGHEFNGLKRGELLDQLMGAATSDTNSSVTAHTKRTAKELKIQARLFRASGDKTLLCRLEGAGAQEVIAEELSEVLTLLFREGADAVVFTDPTGMIRNVNEAFLNLTDVGQLGDIKGKSLSDFLARGSVDLKVMMDNASRHGSMPVYSTRLESAYGSQLSVEISATHLEARQNGGFAFVFRDASRLEVVRDAAPVNGAVSGEAMQNVMELVGSAPLKDIVSATTDVVEKMCIETAVGLTRNNRVAAAEMLGLSRQSLYVKLRKYGLLNKGGDE"}, "B4": {"name": "Enolase (Eno) (enzyme, UniProt A8LQL4 1-424)", "chain": "MSLIVDVYAREILDSRGNPTVEVDVTLEDGTLGRAAVPSGASTGAYEAVELRDKDTARYFGKGVKTAVAFVNGEIAEALMGIDATDQVGIDSAMIELDGTPNKSRLGANAILGVSLAVAKAAAEATGQPLYRYVGGTSARVLPVPMMNIINGGEHADNPIDIQEFMIMPVSADSIAEAVRMGAEVFHTLKKELSAAGLSTGIGDEGGFAPNLSSTRDALDFVLKAIEKAGYTPGEDIYLALDCAATEYFEDGRYEMKGEGKTLTPEANVDYLEALVNDYPILSIEDGCSEDDWEGWALLTERLGDRVQLVGDDLFVTNPARLAEGIQKGCANSLLVKVNQIGTLTETLSAVDLAHRNRMTCVMSHRSGETEDATIADLAVATNCGQIKTGSLARSDRLAKYNQLIRIEDELGETAIYAGRSILR"}, "B5": {"name": "Dshi_1084, conserved hypothetical protein (protein, UniProt A8LSL2 1-136)", "chain": "MSTVATWPSQAEMWLDRKGKPAWIVAMVLGFIFFWPIGLALLAYMIWGKKMFKSQSACKSYSLTHGFKSSGNTAFDAYKADTLRRLQDEQEAFEAFLDRLRAAKDKSEFDQFMEDRARMAQDTPKPDTDGPAPAGA"}, "B6": {"name": "N-acetylglucosamine-1-phosphate uridyltransferase (GlmU) (enzyme, UniProt A8LIS2 1-450)", "chain": "MGVALIVLAAGQGSRMNSELPKVLHPLAGAPLLAHGLRAGAALDPARIVVVTGHGAAAVEAATAQLAPEAICVRQTEQLGTGHAVAQTAQALAGFGGDALVLYGDTPFISPETLLAMQAARAAGADMVVLGFEAADPGRYGRLVTDGDALLRIVEAKDATPDELALDLCNSGVMMADAQVLLRLVAGLSNDNASREYYLTDTIAAGRAEGLRARVVVCPEAETLGINTRTELAAAEQAFQARARARALEDGVTLADPATTHFAVDTVIGRDATIGPQVVFGPGVTVESGAEIRAFSHLEGCHVSRGARVGPFARLRPGAELAENTHVGNFVEIKNATLAQGAKVNHLSYIGDAAIGEASNVGAGTITCNYDGVFKHRTEIGARSFIGSNTCLVAPVRVGDEAMTATGTVVTQDIPDGAMAVGRTRQENKPGFARKFMTMLRARKSAKGAQ"}, "B7": {"name": "RpoA, RNA polymerase subunit alpha (protein, UniProt A8LM81 1-343)", "chain": "MEATPMIHKNWQELIKPTQLEVKPGNEPARQATVVAEPLERGFGLTLGNALRRVLMSSLQGAAITSVQIDNVLHEFSSVAGVREDVTDIVLNLKQVAIRMEVEGPKRVSISAKGPRVVTAGDISESAGIEVLNRDHVICHLDEGADLFMELIVNTGKGYVSADKNRPEDAPIGLIPIDAIFSPVKKVSYDVQPTREGQVLDYDKLTLKLETDGSVTPDDAVAYAARILQDQLSVFVNFDEPEAARSQSEEDDLEFNPLLLKKVDELELSVRSANCLKNDNIVYIGDLIQKTEAEMLRTPNFGRKSLNEIKEVLSGMGLHLGMDILDWPPENIEDLAKKFEDQF"}, "B8": {"name": "Dshi_2485, pyruvate carboxylase (enzyme, UniProt A8LSM0 1-1145)", "chain": "MTDFQKILIANRGEIAIRVMRAANELGKKTVAVYAEEDKLCLHRFKADEAYKIGEGLGPVAAYLSIDEIIRVAKLSGADAIHPGYGLLSENPDFVDACVANGIAFIGPRAETMRALGDKASARRVAIEAGVPVIPATEVLGDDMDKVRAEAEAIGFPLMLKASWGGGGRGMRPIFDPDEVADKVREGRREAEAAFGNGEGYLEKMITRARHVEVQILGDSMGNIYHLWERDCSVQRRNQKVVERAPAPYLSSSQREQLCELGRKICAHVNYECAGTVEFLMDMDTGEFFFIEVNPRVQVEHTVTEEVTGIDIVRAQILIAEGKSLVEATGMASQYDVQLNGHAIQCRITTEDPQNNFIPDYGRITAYRGATGMGIRLDGGTAYSGAVITRYYDSLLEKVTAWAPTPEAAIARMDRALREFRIRGVSTNIAFVENLLKHPTFLNNQYTTKFIDETEELFQFPKRRDRATRILRYIADISVNGHPETEGRPKPPATPRALRAPAPKAAPAPGTRTLLEKKGPQAVADWMAAQKQLLITDTTMRDGHQSLLATRMRSIDMIRVAPSYAANLPQLFSVECWGGATFDVAYRFLQECPWQRLRDIRAAMPNVMTQMLLRGSNGVGYTNYPDNVVRAFTLQAAESGVDVFRVFDSLNWVENMRVAMDAVLESGKVCEGAICYTGDILDPNRAKYDLNYYVTMGKELREAGAHILGLKDMAGLLKPASARILIKALKEEVGLPIHFHTHDTAGIASATILAAAESGVDAVDCAMDALSGNTSQATLGTVVEALQHTDRDTGLDIKAVREISDYWEAVRGEYAAFESGMQAPSSEVYLHEMPGGQFTNLKAQARSLGLEERWHEVAQTYADVNQMFGDIVKVTPSSKVVGDMALMMVSQGLSRADVEDPDRDVSFPDSVIDMMRGNLGQPAGGFPEAIVAKILKGESPNTERPGKHIPPVDLEKTRADLAAQLEVDIDDEDLNGYLMYPKVFTDYMTRHAEYGPVRTLPTRTFFYGMQPGDEIEVEIDPGKTLVVRMQTASETNEDGEVKVFFELNGQPRQVRVPNRKAAASVAKRPKAELGNPNHVGAPMPGVVASVAVQAGASVKEGDLLLTIEAMKMETGIHAERDAVVKAVHVTPAAQIDAKDLLVELE"}, "B9": {"name": "Elongation factor Ts (Tsf) (protein, UniProt A8LK92 1-291)", "chain": "MAITAALVKELRDKTGAGMMDAKKALTETDGDMEAAVDWLRTKGLAKAAKKSGRTAAEGLVGVAVADGAAVAVEVNSETDFVAKNAEFQAMVASFAEAALSASDLDALKGTEVGGKTVETILTDKIATIGENMTLRRMEKLSGETVVSYVHNAAADGMGKIGVLVALTGADNGIGKQIAMHIAAANPASLSEADLDPAVVEKERQVQIDIARESGKPEQVIEKMIVGRMKKFLSEVTLLGQAFVVNPDLTVGDAAKEAGVEITGFVRMEVGEGIEKVEEDFAAEVAKTMNG"}},
  "note": "These are yes or no findings as the source states them, for the method shown. In cells and extracts the contact can be indirect. Here binding means that the protein was enriched with, or labelled near, the bait; the list need not be complete. A no says only that the protein was not detected with the bait. Sequences can lack the tags named with a protein.",
  "data": [
    {"biological_target": "Dshi_1135-Strep fusion protein (Dinoroseobacter shibae) (UniProt A8LHT0)", "experiment": "affinity purification with mass spectrometry; D. shibae DS266 grown in the dark, under blue light (467 nm) or white light; in vivo cross-linking with 0.125% formaldehyde; Dshi_1135-Strep bait on a Strep-Tactin column; elution fractions by nanoLC-MS/MS, compared with the proteome of the cell extract", "values": [
      {"binder": "B1", "binding": "binds"},
      {"binder": "B2", "binding": "no binding"},
      {"binder": "B3", "binding": "binds"},
      {"binder": "B4", "binding": "binds"},
      {"binder": "B5", "binding": "binds"},
      {"binder": "B6", "binding": "binds"},
      {"binder": "B7", "binding": "binds"},
      {"binder": "B8", "binding": "no binding"},
      {"binder": "B9", "binding": "binds"}
    ]}
  ]
}
